PubChem BioAssay AID1159578 | Peter MacCallum Cancer Centre | 2015
Assay: 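Genome-wide hunt for genes controlling movement of lymphatic endothelial cells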 (primary screen). Cells: human lymphatic endothelial cells. Reagent: siRNA pool against human genes, 40 nM. Timing: 48 h after transfection. Read-out: 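High-content imaging of dye-stained cells in a scratch assay measures filled wound area and nuclei per well; duplicate means given as ratio to mock and robust z-score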. Reading the numbers: migration robust z-score: higher = faster migration into the scratch; migration relative to mock: higher = more scratch area covered than mock; nuclei per well: higher = more cells in the well. Active means: 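Migration changed when robust z exceeds 2 or falls below -2 and mean nuclei number is at least 3300; otherwise not called changed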. Meaning of the calls: active = migration changed; inactive = no migration change, or too few cells.
This is a random part of about 18,000 deposited reagents. Over the whole deposit, about 1,030 (5.7%) are marked active. 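Inactive calls also include pools with fewer than 3300 nuclei, whose migration was not assessed.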 The raw values are shown without normalisation. Reagents against one gene are numbered here. Reagent sequences are not shown.

| gene symbol | reagent | migration robust z-score | migration class with cell-count check | migration relative to mock | nuclei per well, duplicate mean | call |
| --- | --- | --- | --- | --- | --- | --- |
| NES (nestin) | 1 | -0.69 | migration z between -2 and 2; enough cells | 0.7 | 5165 | inactive |
| ANKRD12 (ankyrin repeat domain 12) | 1 | 0.4 | migration z between -2 and 2; enough cells | 0.98 | 6664 | inactive |
| RNMT (RNA guanine-7 methyltransferase) | 1 | 1.79 | migration z between -2 and 2; enough cells | 1.15 | 5269 | inactive |
| SFRP2 (secreted frizzled related protein 2) | 1 | 0.05 | migration z between -2 and 2; enough cells | 0.82 | 4416 | inactive |
| AGPAT4 (1-acylglycerol-3-phosphate O-acyltransferase 4) | 1 | 1.03 | migration z between -2 and 2; enough cells | 1.16 | 6866 | inactive |
| ASPM (assembly factor for spindle microtubules) | 1 | -0.23 | migration z between -2 and 2; enough cells | 0.83 | 5100 | inactive |
| TWF2 (twinfilin actin binding protein 2) | 1 | 0.54 | migration z between -2 and 2; enough cells | 0.91 | 5190 | inactive |
| KSR2 (kinase suppressor of ras 2) | 1 | -0.03 | migration z between -2 and 2; enough cells | 0.8 | 4430 | inactive |
| NWD1 (NACHT and WD repeat domain containing 1) | 1 | -1.53 | migration z between -2 and 2; enough cells | 0.49 | 5138 | inactive |
| SLC12A7 | 1 | -2.02 | migration z below -2; enough cells | 0.42 | 4876 | active |
| TMX2 (thioredoxin related transmembrane protein 2) | 1 | -1.66 | migration z between -2 and 2; enough cells | 0.48 | 5408 | inactive |
| POLDIP2 (DNA polymerase delta interacting protein 2) | 1 | 0.66 | migration z between -2 and 2; enough cells | 1.05 | 6575 | inactive |
| MOBP (myelin associated oligodendrocyte basic protein) | 1 | -0.66 | migration z between -2 and 2; enough cells | 0.72 | 4561 | inactive |
| STAC3 (SH3 and cysteine rich domain 3) | 1 | 1.85 | migration z between -2 and 2; enough cells | 1.36 | 6236 | inactive |
| CPT1C (carnitine palmitoyltransferase 1C) | 1 | 1.38 | migration z between -2 and 2; enough cells | 1.07 | 5413 | inactive |
| KDM7A (lysine demethylase 7A) | 1 | -0.24 | migration z between -2 and 2; enough cells | 0.76 | 6650 | inactive |
| FBN1 (fibrillin 1) | 1 | 1.13 | migration z between -2 and 2; enough cells | 1.18 | 5726 | inactive |
| ZDHHC19 (zDHHC palmitoyltransferase 19) | 1 | 0.12 | migration z between -2 and 2; enough cells | 0.92 | 6696 | inactive |
| TMEM150C (transmembrane protein 150C) | 1 | 1.16 | migration z between -2 and 2; enough cells | 1.19 | 5106 | inactive |
| NDUFA11 (NADH:ubiquinone oxidoreductase subunit A11) | 1 | 0.13 | migration z between -2 and 2; enough cells | 0.83 | 5194 | inactive |
| IER3IP1 (immediate early response 3 interacting protein 1) | 1 | -0.01 | migration z between -2 and 2; enough cells | 0.88 | 6784 | inactive |
| GSKIP (GSK3B interacting protein) | 1 | -0.81 | migration z between -2 and 2; enough cells | 0.68 | 3314 | inactive |
| TMEM143 (transmembrane protein 143) | 1 | 0 | migration z between -2 and 2; enough cells | 0.88 | 5940 | inactive |
| PFDN1 (prefoldin subunit 1) | 1 | -1.85 | under 3300 nuclei; migration not judged | 0.45 | 3219 | inactive |
| PCDHB10 (protocadherin beta 10) | 1 | -0.01 | migration z between -2 and 2; enough cells | 0.88 | 6484 | inactive |
| MMP27 (matrix metallopeptidase 27) | 1 | 0.78 | migration z between -2 and 2; enough cells | 0.95 | 5480 | inactive |
| PSG3 (pregnancy specific beta-1-glycoprotein 3) | 1 | 0.03 | migration z between -2 and 2; enough cells | 0.89 | 4992 | inactive |
| CNRIP1 (cannabinoid receptor interacting protein 1) | 1 | -0.41 | migration z between -2 and 2; enough cells | 0.78 | 5679 | inactive |
| CHRNA6 (cholinergic receptor nicotinic alpha 6 subunit) | 1 | 0.52 | migration z between -2 and 2; enough cells | 0.9 | 5434 | inactive |
| MTMR4 (myotubularin related protein 4) | 1 | -0.8 | migration z between -2 and 2; enough cells | 0.65 | 5663 | inactive |
| SNTG1 (syntrophin gamma 1) | 1 | 1.28 | migration z between -2 and 2; enough cells | 1.21 | 5482 | inactive |
| GPR62 (G protein-coupled receptor 62) | 1 | -0.24 | migration z between -2 and 2; enough cells | 0.76 | 7400 | inactive |
| LSM14A (LSM14A mRNA processing body assembly factor) | 1 | 0.9 | migration z between -2 and 2; enough cells | 1.12 | 6422 | inactive |
| CARNMT1 (carnosine N-methyltransferase 1) | 1 | -0.15 | migration z between -2 and 2; enough cells | 0.85 | 6556 | inactive |
| MDFI (MyoD family inhibitor) | 1 | 0.76 | migration z between -2 and 2; enough cells | 1.08 | 5600 | inactive |
| PHF11 (PHD finger protein 11) | 1 | 0.55 | migration z between -2 and 2; enough cells | 0.91 | 6614 | inactive |
| COMMD9 (COMM domain containing 9) | 1 | -1.62 | migration z between -2 and 2; enough cells | 0.47 | 3710 | inactive |
| COMMD9 (COMM domain containing 9) | 2 | 0.02 | migration z between -2 and 2; enough cells | 0.9 | 4906 | inactive |
| ZNF772 (zinc finger protein 772) | 1 | -2.02 | under 3300 nuclei; migration not judged | 0.35 | 3164 | inactive |
| ZNF7 (zinc finger protein 7) | 1 | 1.03 | migration z between -2 and 2; enough cells | 1.16 | 5926 | inactive |
| KRT15 (keratin 15) | 1 | 0.89 | migration z between -2 and 2; enough cells | 1.12 | 6186 | inactive |
| MFSD11 (major facilitator superfamily domain containing 11) | 1 | -1.31 | migration z between -2 and 2; enough cells | 0.54 | 5752 | inactive |
| CCL26 (C-C motif chemokine ligand 26) | 1 | 1.32 | migration z between -2 and 2; enough cells | 1.23 | 4864 | inactive |
| WNT3 (Wnt family member 3) | 1 | 0.62 | migration z between -2 and 2; enough cells | 1.04 | 5831 | inactive |
| RORC (RAR related orphan receptor C) | 1 | -1.14 | migration z between -2 and 2; enough cells | 0.58 | 6012 | inactive |
| IRF2BP1 (interferon regulatory factor 2 binding protein 1) | 1 | 0.24 | migration z between -2 and 2; enough cells | 0.85 | 4834 | inactive |
| OPRL1 (opioid related nociceptin receptor 1) | 1 | 1.48 | migration z between -2 and 2; enough cells | 1.09 | 6654 | inactive |
| COL2A1 (collagen type II alpha 1 chain) | 1 | 2.68 | migration z above 2; enough cells | 1.58 | 5876 | active |
| TEX29 (testis expressed 29) | 1 | 0.39 | migration z between -2 and 2; enough cells | 0.98 | 5159 | inactive |
| ABHD14B (abhydrolase domain containing 14B) | 1 | -1.77 | migration z between -2 and 2; enough cells | 0.46 | 7026 | inactive |
| C11orf16 (chromosome 11 open reading frame 16) | 1 | -0.08 | migration z between -2 and 2; enough cells | 0.86 | 5159 | inactive |
| SLC17A9 | 1 | -0.92 | migration z between -2 and 2; enough cells | 0.64 | 4804 | inactive |
| KDR (kinase insert domain receptor) | 1 | -2.93 | migration z below -2; enough cells | 0.24 | 3695 | active |
| TMEM123 (transmembrane protein 123) | 1 | -1.27 | migration z between -2 and 2; enough cells | 0.55 | 5162 | inactive |
| KIRREL2 (kirre like nephrin family adhesion molecule 2) | 1 | -0.93 | migration z between -2 and 2; enough cells | 0.64 | 5319 | inactive |
| DHRS11 (dehydrogenase/reductase 11) | 1 | -1.58 | migration z between -2 and 2; enough cells | 0.5 | 5298 | inactive |
| LMNA (lamin A/C) | 1 | 0.16 | migration z between -2 and 2; enough cells | 0.84 | 6588 | inactive |
| C1orf56 (chromosome 1 open reading frame 56) | 1 | -0.4 | migration z between -2 and 2; enough cells | 0.78 | 6600 | inactive |
| FKBP1B (FKBP prolyl isomerase 1B) | 1 | -0.02 | migration z between -2 and 2; enough cells | 0.8 | 5456 | inactive |
| ORM2 (orosomucoid 2) | 1 | -1.9 | migration z between -2 and 2; enough cells | 0.4 | 4546 | inactive |
| IRF7 (interferon regulatory factor 7) | 1 | -0.39 | migration z between -2 and 2; enough cells | 0.73 | 4346 | inactive |
| AP3M2 (adaptor related protein complex 3 subunit mu 2) | 1 | -2.27 | migration z below -2; enough cells | 0.3 | 4260 | active |
| TAF1L (TATA-box binding protein associated factor 1 like) | 1 | -0.65 | migration z between -2 and 2; enough cells | 0.68 | 4716 | inactive |
| SLC66A3 | 1 | -0.86 | migration z between -2 and 2; enough cells | 0.66 | 5786 | inactive |
| FAM20B (FAM20B glycosaminoglycan xylosylkinase) | 1 | 0.63 | migration z between -2 and 2; enough cells | 1.05 | 5570 | inactive |
| ARMCX1 (armadillo repeat containing X-linked 1) | 1 | 1.2 | migration z between -2 and 2; enough cells | 1.2 | 6334 | inactive |
| CDCA2 (cell division cycle associated 2) | 1 | 0.11 | migration z between -2 and 2; enough cells | 0.91 | 6268 | inactive |
| PPM1N (protein phosphatase, Mg2+/Mn2+ dependent 1N (putative)) | 1 | -0.64 | migration z between -2 and 2; enough cells | 0.72 | 7901 | inactive |
| CD80 (CD80 molecule) | 1 | -1.25 | migration z between -2 and 2; enough cells | 0.56 | 5132 | inactive |
| FLOT1 (flotillin 1) | 1 | 0.86 | migration z between -2 and 2; enough cells | 1.11 | 6203 | inactive |
| LRP11 (LDL receptor related protein 11) | 1 | 0.67 | migration z between -2 and 2; enough cells | 1.05 | 7254 | inactive |
| C4BPB (complement component 4 binding protein beta) | 1 | 0.58 | migration z between -2 and 2; enough cells | 1.04 | 5653 | inactive |
| CHRNB3 (cholinergic receptor nicotinic beta 3 subunit) | 1 | -0.05 | migration z between -2 and 2; enough cells | 0.8 | 6604 | inactive |
